Assay results from paper PMC12489390.
These are yes or no findings as the source states them, for the method shown. Binding can be weak; no strength is given.

B1: fibulin-3 (FBLN3) (protein, UniProt Q12805 1-493)
chain: MLKALFLTMLTLALVKSQDTEETITYTQCTDGYEWDPVRQQCKDIDECDIVPDACKGGMKCVNHYGGYLCLPKTAQIIVNNEQPQQETQPAEGTSGATTGVVAASSMATSGVLPGGGFVASAAAVAGPEMQTGRNNFVIRRNPADPQRIPSNPSHRIQCAAGYEQSEHNVCQDIDECTAGTHNCRADQVCINLRGSFACQCPPGYQKRGEQCVDIDECTIPPYCHQRCVNTPGSFYCQCSPGFQLAANNYTCVDINECDASNQCAQQCYNILGSFICQCNQGYELSSDRLNCEDIDECRTSSYLCQYQCVNEPGKFSCMCPQGYQVVRSRTCQDINECETTNECREDEMCWNYHGGFRCYPRNPCQDPYILTPENRCVCPVSNAMCRELPQSIVYKYMSIRSDRSVPSDIFQIQATTIYANTINTFRIKSGNENGEFYLRQTSPVSAMLVLVKSLSGPREHIVDLEMLTVSSIGTFRTSSVLRLTIIVGPFSF
B2: COL6A2, C-terminal portion of the central triple helical domain and N-terminal portion of VWA domain #C1 (domain or fragment, UniProt P12110-1 480-652)
chain: LGEPGKQGSRGDPGDAGPRGDSGQPGPKGDPGRPGFSYPGPRGAPGEKGEPGPRGPEGGRGDFGLKGEPGRKGEKGEPADPGPPGEPGPRGPRGVPGPEGEPGPPGDPGLTECDVMTYVRETCGCCDCEKRCGALDVVFVIDSSESIGYTNFTLEKNFVINVVNRLGAIAKDP

Molecular target: ADAMTS17 ancillary domain (17-AD)
Assay: two-hybrid; ULTImate Y2H SCREEN by Hybrigenics Services; bait ADAMTS17-AD (aa 546-1,122) in pB27 (N-LexA-bait-C fusion); Prey Library Human Placenta_RP6; 60 clones processed, 170 million interactions analyzed

Binder	binding
B1	binds
B2	binds
